In patent US20040197334A1:
These are yes or no findings as the source states them, for the method shown. Some results given as binding are weak or reduced against the parent protein; the word gives no strength.

Sequences of proteins named here, by UniProt entry; tags and fusion partners are left off.
UniProt P08183: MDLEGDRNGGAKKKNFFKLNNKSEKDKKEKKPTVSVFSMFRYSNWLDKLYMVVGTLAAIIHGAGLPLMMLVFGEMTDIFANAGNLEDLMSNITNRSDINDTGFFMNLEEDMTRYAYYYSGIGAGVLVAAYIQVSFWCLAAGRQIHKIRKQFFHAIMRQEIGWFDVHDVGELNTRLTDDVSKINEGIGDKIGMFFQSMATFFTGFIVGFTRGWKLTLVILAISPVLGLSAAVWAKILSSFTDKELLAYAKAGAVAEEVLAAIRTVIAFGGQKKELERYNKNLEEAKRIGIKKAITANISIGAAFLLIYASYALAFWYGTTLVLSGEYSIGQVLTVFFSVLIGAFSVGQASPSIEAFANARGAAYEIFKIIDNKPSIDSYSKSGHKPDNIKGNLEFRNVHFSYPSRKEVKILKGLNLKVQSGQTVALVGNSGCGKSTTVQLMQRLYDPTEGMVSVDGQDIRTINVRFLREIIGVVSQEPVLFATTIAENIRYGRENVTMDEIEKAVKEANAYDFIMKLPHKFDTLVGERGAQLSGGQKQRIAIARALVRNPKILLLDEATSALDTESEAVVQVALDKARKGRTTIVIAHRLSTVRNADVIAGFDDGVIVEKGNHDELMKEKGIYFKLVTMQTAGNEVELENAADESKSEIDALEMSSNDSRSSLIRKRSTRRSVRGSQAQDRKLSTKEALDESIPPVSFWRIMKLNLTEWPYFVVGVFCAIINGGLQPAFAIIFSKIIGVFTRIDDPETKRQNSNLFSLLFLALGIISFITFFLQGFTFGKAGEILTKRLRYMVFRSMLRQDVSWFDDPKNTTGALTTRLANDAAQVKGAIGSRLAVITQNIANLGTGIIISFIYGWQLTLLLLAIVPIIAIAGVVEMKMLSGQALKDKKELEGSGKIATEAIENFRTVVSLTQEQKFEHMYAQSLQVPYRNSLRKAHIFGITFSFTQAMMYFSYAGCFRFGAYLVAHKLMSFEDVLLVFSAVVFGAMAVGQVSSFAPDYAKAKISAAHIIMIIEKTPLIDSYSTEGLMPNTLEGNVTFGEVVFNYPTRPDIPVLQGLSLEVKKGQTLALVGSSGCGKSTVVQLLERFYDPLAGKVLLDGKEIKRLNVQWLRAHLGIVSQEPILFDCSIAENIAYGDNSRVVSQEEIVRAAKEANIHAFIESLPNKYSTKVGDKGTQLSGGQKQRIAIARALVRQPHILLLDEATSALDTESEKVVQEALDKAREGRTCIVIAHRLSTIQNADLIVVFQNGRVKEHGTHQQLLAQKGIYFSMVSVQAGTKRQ

Experiments:
[1] = molecular target: biotinylated target Pgp-derived peptide having the amino acid sequence of SEQ ID NO:1 (…) (human); experiment: ELISA, anti-Myc-HRP detection
[2] = molecular target: human P-glycoprotein (Pgp), 170 kDa, encoded by the mdr1 gene, on the surface of MDR human carcinoma cells (2780^ADR, KBV-1) (human) (UniProt P08183); experiment: summary of flow cytometry and immunohistochemistry
[3] = molecular target: biotinylated target Pgp-derived peptide having the amino acid sequence of SEQ ID NO:1 (…) (human); experiment: competition radioimmunoassay
[4] = molecular target: biotinylated target Pgp-derived peptide having the amino acid sequence of SEQ ID NO:1 (…) (human); experiment: ELISA, FIG. 1b legend
[5] = molecular target: human P-glycoprotein (Pgp), 170 kDa, encoded by the mdr1 gene, on the surface of MDR human carcinoma cells (2780^ADR, KBV-1) (human) (UniProt P08183); experiment: immunohistochemistry on fixed cells, A2 scFv 0.2 mg/ml, anti-Myc-HRP
[6] = molecular target: biotinylated target Pgp-derived peptide having the amino acid sequence of SEQ ID NO:1 (…) (human); experiment: saturation ELISA
[7] = molecular target: human P-glycoprotein (Pgp), 170 kDa, encoded by the mdr1 gene, on the surface of MDR human carcinoma cells (2780^ADR, KBV-1) (human) (UniProt P08183); experiment: flow cytometry on MDR cells
[8] = molecular target: human P-glycoprotein (Pgp), 170 kDa, encoded by the mdr1 gene, on the surface of MDR human carcinoma cells (2780^ADR, KBV-1) (human) (UniProt P08183); experiment: flow cytometry on MDR, Pgp-overexpressing KBV-1 cells (FIG. 2d legend)

Measured: binding

B1: A2 single-chain Fv (scFv) (scFv)
scFv: QVQLQQSGPDLVKPGASVKISCKASGYSFTGYYMHWVKQSHGKSLEWIGRANPNNGGTSYNQKFKGKAILTVDKSSSTAYMELRSLTSEDSAVYYCARWDGAYWGQGTLVTVSSGGGGSGGGGSGGGGSDVVMTQTPLSLPVSLGDQASISCRSSQSIVHSNGNTYLEWYLQKPGQSPKLLIYKVSNRFSGVPDRFSGSGSGTDFTLKISRVEAEDLGVYYCFQGSHVPFTFGSGTKLELKEQKLISEEDLNHHHHHH
binds: all assays above
